From article PMC7463771
Results are given in words; binding and its absence hold for the method and conditions named. Binding seen in cells or lysates may run through a third protein. Some results given as binding are weak or reduced against the parent protein; the word gives no strength.

Chains of the proteins cited; added tags and fusions are not shown.
UniProt P00520: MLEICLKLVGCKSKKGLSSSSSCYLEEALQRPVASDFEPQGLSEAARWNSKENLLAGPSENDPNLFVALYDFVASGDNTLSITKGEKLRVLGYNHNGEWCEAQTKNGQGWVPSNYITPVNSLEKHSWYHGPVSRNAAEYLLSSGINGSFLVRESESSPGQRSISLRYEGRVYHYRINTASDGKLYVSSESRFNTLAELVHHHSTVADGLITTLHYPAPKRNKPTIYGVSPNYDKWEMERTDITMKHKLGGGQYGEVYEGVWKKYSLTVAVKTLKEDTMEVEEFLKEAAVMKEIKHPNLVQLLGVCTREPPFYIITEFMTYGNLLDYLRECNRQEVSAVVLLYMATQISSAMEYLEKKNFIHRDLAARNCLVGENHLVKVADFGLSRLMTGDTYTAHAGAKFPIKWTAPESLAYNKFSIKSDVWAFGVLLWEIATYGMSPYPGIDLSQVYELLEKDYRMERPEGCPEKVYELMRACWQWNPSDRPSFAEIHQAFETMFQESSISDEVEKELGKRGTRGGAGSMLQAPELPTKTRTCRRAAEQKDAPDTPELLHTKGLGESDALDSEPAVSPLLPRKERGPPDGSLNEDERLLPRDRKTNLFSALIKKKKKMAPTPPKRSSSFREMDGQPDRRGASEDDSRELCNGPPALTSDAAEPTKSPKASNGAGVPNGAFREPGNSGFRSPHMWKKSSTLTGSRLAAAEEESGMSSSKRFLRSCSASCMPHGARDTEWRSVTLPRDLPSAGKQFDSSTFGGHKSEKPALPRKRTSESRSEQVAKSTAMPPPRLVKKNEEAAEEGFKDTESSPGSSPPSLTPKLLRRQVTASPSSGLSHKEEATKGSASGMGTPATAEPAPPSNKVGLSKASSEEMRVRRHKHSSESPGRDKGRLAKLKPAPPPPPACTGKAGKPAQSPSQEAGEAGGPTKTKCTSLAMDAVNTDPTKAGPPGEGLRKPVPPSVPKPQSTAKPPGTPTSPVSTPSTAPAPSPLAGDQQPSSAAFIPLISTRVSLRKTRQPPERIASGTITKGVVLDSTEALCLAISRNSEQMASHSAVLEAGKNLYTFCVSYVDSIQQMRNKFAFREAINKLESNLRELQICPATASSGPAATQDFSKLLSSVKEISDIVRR
UniProt P46109: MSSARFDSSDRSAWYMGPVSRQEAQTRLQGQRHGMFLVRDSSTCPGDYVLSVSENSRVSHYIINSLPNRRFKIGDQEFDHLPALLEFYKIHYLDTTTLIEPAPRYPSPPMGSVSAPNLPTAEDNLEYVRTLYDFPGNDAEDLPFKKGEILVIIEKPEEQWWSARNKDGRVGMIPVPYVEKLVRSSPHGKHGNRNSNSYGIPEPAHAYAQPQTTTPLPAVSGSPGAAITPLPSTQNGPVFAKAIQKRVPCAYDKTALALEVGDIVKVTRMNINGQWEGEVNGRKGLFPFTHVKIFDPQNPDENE

Columns and labels:
[1] = biological target: T1, Gab1 (mouse, mHCC1 cells) (mouse (endogenous in mHCC1)) (UniProt Q9QYY0); experiment: co-IP; immunoprecipitation of MET, Gab1 or Abl from lysates of mouse Alb-R26^Met mHCC1 cells (control or shC3G); IP buffer 50 mM Tris-HCl pH 7.5, 150 mM NaCl, 1% NP40; Western blot of C3G, MET and P-MET (Y1234/Y1235)
T1 sequence: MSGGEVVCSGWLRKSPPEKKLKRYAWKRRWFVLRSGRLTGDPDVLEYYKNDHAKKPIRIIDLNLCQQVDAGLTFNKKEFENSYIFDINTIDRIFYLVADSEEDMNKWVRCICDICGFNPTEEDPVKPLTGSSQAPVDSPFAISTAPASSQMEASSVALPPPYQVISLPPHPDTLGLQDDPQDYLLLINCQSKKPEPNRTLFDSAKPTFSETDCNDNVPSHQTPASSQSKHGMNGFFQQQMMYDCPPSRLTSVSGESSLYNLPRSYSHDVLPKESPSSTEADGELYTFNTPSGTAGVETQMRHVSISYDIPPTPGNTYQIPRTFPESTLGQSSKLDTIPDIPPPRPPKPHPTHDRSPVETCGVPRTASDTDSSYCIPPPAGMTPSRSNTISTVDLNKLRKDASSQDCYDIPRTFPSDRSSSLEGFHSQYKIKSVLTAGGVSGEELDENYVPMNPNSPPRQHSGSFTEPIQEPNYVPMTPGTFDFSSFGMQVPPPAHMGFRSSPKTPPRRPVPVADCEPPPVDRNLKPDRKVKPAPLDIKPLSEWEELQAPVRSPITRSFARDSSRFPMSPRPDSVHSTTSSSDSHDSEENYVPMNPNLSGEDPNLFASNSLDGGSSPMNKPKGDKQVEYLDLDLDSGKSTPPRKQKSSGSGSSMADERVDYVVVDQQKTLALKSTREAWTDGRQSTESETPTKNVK

[2] = biological target: T2, Gab1 (human (endogenous in Hep3B)) (UniProt Q13480); experiment: co-IP; immunoprecipitation of endogenous Gab1 from Hep3B lysates (non-silenced or shC3G; serum starved, untreated or HGF 5 min); IP buffer 50 mM Tris-HCl pH 7.5, 150 mM NaCl, 1% NP40; Western blot of C3G, Gab1 and CrkL
T2 sequence: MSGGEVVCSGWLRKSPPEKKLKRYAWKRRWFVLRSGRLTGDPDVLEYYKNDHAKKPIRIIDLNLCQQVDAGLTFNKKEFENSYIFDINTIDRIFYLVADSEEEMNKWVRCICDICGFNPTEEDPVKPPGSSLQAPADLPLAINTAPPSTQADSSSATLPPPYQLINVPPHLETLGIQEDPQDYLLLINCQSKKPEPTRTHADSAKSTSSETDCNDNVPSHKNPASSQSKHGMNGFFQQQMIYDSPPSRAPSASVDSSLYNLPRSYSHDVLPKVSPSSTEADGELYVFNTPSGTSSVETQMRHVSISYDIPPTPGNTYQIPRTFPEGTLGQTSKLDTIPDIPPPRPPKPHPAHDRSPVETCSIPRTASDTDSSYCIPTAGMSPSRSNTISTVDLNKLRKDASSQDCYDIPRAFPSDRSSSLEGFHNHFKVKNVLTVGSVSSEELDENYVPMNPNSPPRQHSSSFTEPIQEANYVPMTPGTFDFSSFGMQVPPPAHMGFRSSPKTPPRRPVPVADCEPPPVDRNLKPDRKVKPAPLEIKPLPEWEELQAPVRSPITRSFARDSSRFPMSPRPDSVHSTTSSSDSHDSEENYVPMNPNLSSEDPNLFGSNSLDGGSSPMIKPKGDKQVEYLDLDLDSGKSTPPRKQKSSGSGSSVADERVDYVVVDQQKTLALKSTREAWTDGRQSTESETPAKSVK

[3] = biological target: T2, Gab1 (human (endogenous in Hep3B)); experiment: co-IP; as a1, lysates of Hep3B cells not treated with HGF

Molecule: Abl (mouse, mHCC1 cells) (from UniProt P00520 1-1123) (enzyme)
- binding [1]: no binding

Molecule: CrkL (from UniProt P46109 1-303)
- binding [2]: binds

B1: C3G (Crk SH3-domain-binding guanine-nucleotide-releasing factor) (protein, UniProt Q13905 1-1077)
chain: MDTDSQRSHLSSFTMKLMDKFHSPKIKRTPSKKGKPAEVSVKIPEKPVNKEATDRFLPEGYPLPLDLEQQAVEFMSTSAVASRSQRQKNLSWLEEKEKEVVSALRYFKTIVDKMAIDKKVLEMLPGSASKVLEAILPLVQNDPRIQHSSALSSCYSRVYQSLANLIRWSDQVMLEGVNSEDKEMVTTVKGVIKAVLDGVKELVRLTIEKQGRPSPTSPVKPSSPASKPDGPAELPLTDREVEILNKTTGMSQSTELLPDATDEEVAPPKPPLPGIRVVDNSPPPALPPKKRQSAPSPTRVAVVAPMSRATSGSSLPVGINRQDFDVDCYAQRRLSGGSHSYGGESPRLSPCSSIGKLSKSDEQLSSLDRDSGQCSRNTSCETLDHYDPDYEFLQQDLSNADQIPQQTAWNLSPLPESLGESGSPFLGPPFQLPLGGHPQPDGPLAPGQQTDTPPALPEKKRRSAASQTADGSGCRVSYERHPSQYDNISGEDLQSTAPIPSVPYAPFAAILPFQHGGSSAPVEFVGDFTAPESTGDPEKPPPLPEKKNKHMLAYMQLLEDYSEPQPSMFYQTPQNEHIYQQKNKLLMEVYGFSDSFSGVDSVQELAPPPALPPKQRQLEPPAGKDGHPRDPSAVSGVPGKDSRDGSERAPKSPDALESAQSEEEVDELSLIDHNEIMSRLTLKQEGDDGPDVRGGSGDILLVHATETDRKDLVLYCEAFLTTYRTFISPEELIKKLQYRYEKFSPFADTFKKRVSKNTFFVLVRVVDELCLVELTEEILKLLMELVFRLVCNGELSLARVLRKNILDKVDQKKLLRCATSSQPLAARGVAARPGTLHDFHSHEIAEQLTLLDAELFYKIEIPEVLLWAKEQNEEKSPNLTQFTEHFNNMSYWVRSIIMLQEKAQDRERLLLKFIKIMKHLRKLNNFNSYLAILSALDSAPIRRLEWQKQTSEGLAEYCTLIDSSSSFRAYRAALSEVEPPCIPYLGLILQDLTFVHLGNPDYIDGKVNFSKRWQQFNILDSMRCFQQAHYDMRRNDDIINFFNDFSDHLAEEALWELSLKIKPRNITRRKTDREEKT
- binding [3]: no binding (condition: cells not treated with HGF)
- binding [2]: binds
